Reference: paper PMC8579450
No constants are given. Whether binding was seen depends on the method and setting. In cells and extracts the contact can be indirect. Some entries that bind do so weakly or less than the wild type.

Molecular target: T1, Lysine Methyltransferase 5A (KMT5A) (human (endogenous in HUVECs)) (UniProt Q9NQR1)
T1 sequence: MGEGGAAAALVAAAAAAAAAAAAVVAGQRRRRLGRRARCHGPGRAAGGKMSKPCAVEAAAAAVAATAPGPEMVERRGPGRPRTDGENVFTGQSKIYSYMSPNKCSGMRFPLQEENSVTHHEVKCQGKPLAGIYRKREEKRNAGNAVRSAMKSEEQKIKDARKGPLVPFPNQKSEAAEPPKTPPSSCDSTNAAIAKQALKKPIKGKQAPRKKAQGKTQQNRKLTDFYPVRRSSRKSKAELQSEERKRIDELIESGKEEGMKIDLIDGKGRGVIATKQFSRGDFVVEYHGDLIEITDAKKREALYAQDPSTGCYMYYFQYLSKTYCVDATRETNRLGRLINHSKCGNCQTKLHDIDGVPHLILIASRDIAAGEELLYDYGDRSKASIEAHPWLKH
Test: co-IP; endogenous immunoprecipitation from HUVEC whole-cell lysates with anti-KMT5A antibody, anti-RFX1 antibody or IgG, protein A/G Dynabeads, 4 °C overnight; western blot

- binding: binds
B1: regulatory factor X1 (RFX1) (protein, UniProt P22670 1-979)
chain: MATQAYTELQAAPPPSQPPQAPPQAQPQPPPPPPPAAPQPPQPPTAAATPQPQYVTELQSPQPQAQPPGGQKQYVTELPAVPAPSQPTGAPTPSPAPQQYIVVTVSEGAMRASETVSEASPGSTASQTGVPTQVVQQVQGTQQRLLVQTSVQAKPGHVSPLQLTNIQVPQQALPTQRLVVQSAAPGSKGGQVSLTVHGTQQVHSPPEQSPVQANSSSSKTAGAPTGTVPQQLQVHGVQQSVPVTQERSVVQATPQAPKPGPVQPLTVQGLQPVHVAQEVQQLQQVPVPHVYSSQVQYVEGGDASYTASAIRSSTYSYPETPLYTQTASTSYYEAAGTATQVSTPATSQAVASSGSMPMYVSGSQVVASSTSTGAGASNSSGGGGSGGGGGGGGGGGGGGSGSTGGGGSGAGTYVIQGGYMLGSASQSYSHTTRASPATVQWLLDNYETAEGVSLPRSTLYCHYLLHCQEQKLEPVNAASFGKLIRSVFMGLRTRRLGTRGNSKYHYYGLRIKASSPLLRLMEDQQHMAMRGQPFSQKQRLKPIQKMEGMTNGVAVGQQPSTGLSDISAQVQQYQQFLDASRSLPDFTELDLQGKVLPEGVGPGDIKAFQVLYREHCEAIVDVMVNLQFTLVETLWKTFWRYNLSQPSEAPPLAVHDEAEKRLPKAILVLLSKFEPVLQWTKHCDNVLYQGLVEILIPDVLRPIPSALTQAIRNFAKSLESWLTHAMVNIPEEMLRVKVAAAGAFAQTLRRYTSLNHLAQAARAVLQNTAQINQMLSDLNRVDFANVQEQASWVCRCEDRVVQRLEQDFKVTLQQQNSLEQWAAWLDGVVSQVLKPYQGSAGFPKAAKLFLLKWSFYSSMVIRDLTLRSAASFGSFHLIRLLYDEYMYYLIEHRVAQAKGETPIAVMGEFANLATSLNPLDPDKDEEEEEEEESEDELPQDISLAAGGESPALGPETLEPPAKLARTDARGLFVQALPSS
